In patent CN101415728A:
Results are given in words; binding and its absence hold for the method and conditions named. Some results given as binding are weak or reduced against the parent protein; the word gives no strength.

The chains behind the UniProt entries cited, without tags or fusion partners. Residues count along the entry.
UniProt Q60751: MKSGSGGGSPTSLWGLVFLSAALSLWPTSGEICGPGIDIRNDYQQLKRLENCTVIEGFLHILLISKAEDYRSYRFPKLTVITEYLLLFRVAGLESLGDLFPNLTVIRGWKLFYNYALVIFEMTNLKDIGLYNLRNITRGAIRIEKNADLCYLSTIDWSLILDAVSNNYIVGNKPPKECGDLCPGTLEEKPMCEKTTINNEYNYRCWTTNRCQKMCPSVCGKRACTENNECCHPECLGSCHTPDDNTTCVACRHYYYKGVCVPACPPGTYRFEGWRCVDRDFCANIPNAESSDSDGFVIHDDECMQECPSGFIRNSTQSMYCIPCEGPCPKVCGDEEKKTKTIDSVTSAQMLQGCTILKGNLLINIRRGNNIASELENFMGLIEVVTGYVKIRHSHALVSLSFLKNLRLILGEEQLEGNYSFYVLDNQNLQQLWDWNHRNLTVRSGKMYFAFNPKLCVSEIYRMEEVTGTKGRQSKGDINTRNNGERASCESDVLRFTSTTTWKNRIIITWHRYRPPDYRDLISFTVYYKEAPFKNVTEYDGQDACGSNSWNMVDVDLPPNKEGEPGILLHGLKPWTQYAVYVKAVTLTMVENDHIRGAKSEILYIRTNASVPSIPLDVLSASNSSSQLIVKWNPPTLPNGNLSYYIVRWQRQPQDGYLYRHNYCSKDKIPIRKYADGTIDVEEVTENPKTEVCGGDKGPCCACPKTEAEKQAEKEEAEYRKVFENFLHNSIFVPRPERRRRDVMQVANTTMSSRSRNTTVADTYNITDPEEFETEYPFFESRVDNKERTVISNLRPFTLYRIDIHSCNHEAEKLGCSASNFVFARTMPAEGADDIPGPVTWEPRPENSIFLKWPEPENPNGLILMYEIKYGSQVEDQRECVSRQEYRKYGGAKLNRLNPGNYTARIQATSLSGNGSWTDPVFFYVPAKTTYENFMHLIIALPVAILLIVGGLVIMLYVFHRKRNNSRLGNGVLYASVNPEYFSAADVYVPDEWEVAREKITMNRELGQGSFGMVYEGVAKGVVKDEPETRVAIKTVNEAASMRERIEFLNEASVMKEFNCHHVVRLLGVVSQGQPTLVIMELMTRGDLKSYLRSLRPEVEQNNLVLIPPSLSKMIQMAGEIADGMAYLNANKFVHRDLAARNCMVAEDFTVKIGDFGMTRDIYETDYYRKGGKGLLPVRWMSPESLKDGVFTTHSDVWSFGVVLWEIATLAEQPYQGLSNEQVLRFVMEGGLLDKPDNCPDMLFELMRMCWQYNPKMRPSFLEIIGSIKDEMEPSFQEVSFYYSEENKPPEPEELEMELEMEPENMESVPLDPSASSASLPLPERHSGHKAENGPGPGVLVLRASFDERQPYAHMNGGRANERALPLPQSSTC
UniProt P08069, residues 31-932: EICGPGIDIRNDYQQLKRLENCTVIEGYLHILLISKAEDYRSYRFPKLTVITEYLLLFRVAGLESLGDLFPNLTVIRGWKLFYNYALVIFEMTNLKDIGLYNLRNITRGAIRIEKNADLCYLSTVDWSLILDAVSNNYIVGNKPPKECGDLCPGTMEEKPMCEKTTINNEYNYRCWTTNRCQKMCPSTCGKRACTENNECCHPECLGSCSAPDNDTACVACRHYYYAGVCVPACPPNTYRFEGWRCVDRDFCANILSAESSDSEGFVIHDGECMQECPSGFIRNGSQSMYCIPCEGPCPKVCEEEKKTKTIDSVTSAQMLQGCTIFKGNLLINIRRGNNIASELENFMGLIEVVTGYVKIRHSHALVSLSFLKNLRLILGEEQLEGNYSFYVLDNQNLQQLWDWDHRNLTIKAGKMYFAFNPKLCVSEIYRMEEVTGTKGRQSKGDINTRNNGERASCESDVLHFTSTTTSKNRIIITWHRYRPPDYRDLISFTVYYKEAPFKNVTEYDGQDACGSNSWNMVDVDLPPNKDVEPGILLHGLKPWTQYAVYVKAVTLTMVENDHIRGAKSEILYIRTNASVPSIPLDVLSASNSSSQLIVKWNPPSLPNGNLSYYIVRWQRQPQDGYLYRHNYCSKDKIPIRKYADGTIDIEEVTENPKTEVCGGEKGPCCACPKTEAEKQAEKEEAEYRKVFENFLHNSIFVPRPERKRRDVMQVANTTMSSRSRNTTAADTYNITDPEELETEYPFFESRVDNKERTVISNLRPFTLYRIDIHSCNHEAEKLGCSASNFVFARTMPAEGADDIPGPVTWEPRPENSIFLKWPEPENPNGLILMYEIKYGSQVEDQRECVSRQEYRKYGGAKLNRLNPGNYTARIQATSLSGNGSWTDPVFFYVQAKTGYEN

B1: M13-C06 antibody (full-length, IgG4 version not stated) (antibody, V domains shown)
VH: EVQLLESGGGLVQPGGSLRLSCAASGFTFSIYRMQWVRQAPGKGLEWVSGISPSGGTTWYADSVKGRFTISRDNSKNTLYLQMNSLRAEDTAVYYCARWSGGSGYAFDIWGQGTMVTVSS
VL: DIQMTQSPLSLSASVGDRVTITCQASRDIRNYLNWYQQKPGKAPKLLIYDASSLQTGVPSRFGGSGSGTDFSFTIGSLQPEDIATYYCQQFDSLPHTFGQGTKLEIK
B2: M14-C03 antibody (full-length, IgG4 version not stated) (antibody, V domains shown)
VH: EVQLLESGGGLVQPGGSLRLSCAASGFTFSKYMMSWVRQAPGKGLEWVSYISPSGGLTWYADSVKGRFTISRDNSKNTLYLQMNSLRAEDTAVYYCARDGARGYGMDVWGQGTTVTVSS
VL: DIQMTQSPATLSLSPGERATLSCRASQSVSSYLAWYQQKPGQAPRLLIYDASNRATGIPARFSGSGSGTDFTLTISSLEPEDFAVYYCQQRSNWPPEVTFGPGTKVDIK
B3: M14-C03.G4.P (antibody, human IgG4, V domains shown, not shown: a dimerising Fc or GST)
VH: B2 VH
VL: B2 VL

Key:
[1] = target: 小鼠IGF-1R(1-903)-Fc (mouse; human) (UniProt Q60751); assay: SPR, antibody immobilised, receptor-Fc injected (multivalent)
[2] = target: soluble / recombinant IGF-1R, construct not stated (UniProt P08069); assay: ELISA with supernatants of 293E cells

Binder	binding [1]	binding [2]
B1	binds	–
B2	binds	–
B3	–	binds
